According to publication doi:10.1101/2023.08.31.555722:
These are yes or no findings as the source states them, for the method shown. Binding seen in cells or lysates may run through a third protein. Some results given as binding are weak or reduced against the parent protein; the word gives no strength. Where a sequence is shown, tags or fusion partners need not be part of it.

T1: Vps8-FLAG (human) (UniProt Q8N3P4)
T1 sequence: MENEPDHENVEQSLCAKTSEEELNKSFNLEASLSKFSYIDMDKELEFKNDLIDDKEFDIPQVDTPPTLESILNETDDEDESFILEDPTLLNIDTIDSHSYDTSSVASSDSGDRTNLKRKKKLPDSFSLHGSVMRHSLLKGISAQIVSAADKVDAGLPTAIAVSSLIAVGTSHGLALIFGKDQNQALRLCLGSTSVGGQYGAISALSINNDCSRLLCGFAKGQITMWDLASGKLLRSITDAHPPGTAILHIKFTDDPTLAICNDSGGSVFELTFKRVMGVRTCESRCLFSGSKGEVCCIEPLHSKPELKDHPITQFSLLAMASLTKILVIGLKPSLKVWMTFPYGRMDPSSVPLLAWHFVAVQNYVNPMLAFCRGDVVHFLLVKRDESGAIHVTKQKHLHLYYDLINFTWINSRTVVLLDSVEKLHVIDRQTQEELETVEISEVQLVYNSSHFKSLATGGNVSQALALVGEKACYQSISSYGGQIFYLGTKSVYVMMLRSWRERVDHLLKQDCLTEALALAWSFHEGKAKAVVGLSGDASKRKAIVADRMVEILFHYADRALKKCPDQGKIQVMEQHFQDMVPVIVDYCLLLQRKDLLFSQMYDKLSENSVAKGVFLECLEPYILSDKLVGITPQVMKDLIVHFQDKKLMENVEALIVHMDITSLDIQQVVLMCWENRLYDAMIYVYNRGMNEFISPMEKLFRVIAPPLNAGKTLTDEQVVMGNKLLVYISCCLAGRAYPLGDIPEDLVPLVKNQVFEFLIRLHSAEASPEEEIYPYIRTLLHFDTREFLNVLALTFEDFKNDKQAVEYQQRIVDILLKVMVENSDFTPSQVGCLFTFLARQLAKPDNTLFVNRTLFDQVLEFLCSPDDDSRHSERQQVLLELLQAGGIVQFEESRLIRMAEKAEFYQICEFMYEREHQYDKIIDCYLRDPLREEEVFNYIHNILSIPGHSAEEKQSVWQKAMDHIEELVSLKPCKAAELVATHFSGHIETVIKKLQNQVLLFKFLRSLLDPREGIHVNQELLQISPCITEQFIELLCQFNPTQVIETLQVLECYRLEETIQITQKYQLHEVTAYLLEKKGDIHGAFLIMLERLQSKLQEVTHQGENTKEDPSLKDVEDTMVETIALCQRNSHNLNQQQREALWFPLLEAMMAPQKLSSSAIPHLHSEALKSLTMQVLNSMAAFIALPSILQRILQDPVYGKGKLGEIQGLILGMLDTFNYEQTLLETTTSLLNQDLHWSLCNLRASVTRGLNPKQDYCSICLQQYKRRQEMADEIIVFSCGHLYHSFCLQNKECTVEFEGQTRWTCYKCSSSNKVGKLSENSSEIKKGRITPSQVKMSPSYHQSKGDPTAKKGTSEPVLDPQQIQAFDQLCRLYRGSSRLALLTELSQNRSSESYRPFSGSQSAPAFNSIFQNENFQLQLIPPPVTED

T2: Vps41-FLAG (human) (UniProt P49754)
T2 sequence: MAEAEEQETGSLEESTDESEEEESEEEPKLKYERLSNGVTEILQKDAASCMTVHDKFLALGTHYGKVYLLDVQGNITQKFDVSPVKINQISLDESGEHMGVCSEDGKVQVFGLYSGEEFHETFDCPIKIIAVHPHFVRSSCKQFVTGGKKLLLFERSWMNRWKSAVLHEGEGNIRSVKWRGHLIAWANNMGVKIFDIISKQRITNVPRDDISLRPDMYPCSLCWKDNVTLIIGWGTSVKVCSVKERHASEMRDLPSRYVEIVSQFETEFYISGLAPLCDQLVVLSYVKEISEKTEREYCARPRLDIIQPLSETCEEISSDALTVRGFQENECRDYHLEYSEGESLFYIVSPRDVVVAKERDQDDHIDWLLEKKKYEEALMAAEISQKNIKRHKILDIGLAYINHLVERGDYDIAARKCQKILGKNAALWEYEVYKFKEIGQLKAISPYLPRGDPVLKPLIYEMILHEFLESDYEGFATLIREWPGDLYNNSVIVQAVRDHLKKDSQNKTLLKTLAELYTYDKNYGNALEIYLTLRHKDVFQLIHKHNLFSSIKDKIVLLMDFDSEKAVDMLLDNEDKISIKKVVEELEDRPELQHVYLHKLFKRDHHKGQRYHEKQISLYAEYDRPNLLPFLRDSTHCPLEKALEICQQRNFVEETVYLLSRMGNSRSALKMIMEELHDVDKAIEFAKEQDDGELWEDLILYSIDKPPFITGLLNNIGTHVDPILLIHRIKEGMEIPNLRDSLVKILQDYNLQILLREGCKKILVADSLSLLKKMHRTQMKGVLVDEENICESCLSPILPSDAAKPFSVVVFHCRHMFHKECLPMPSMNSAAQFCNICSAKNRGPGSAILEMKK

B1: Vps18 (protein, UniProt Q9P253 1-973)
chain: MASILDEYENSLSRSAVLQPGCPSVGIPHSGYVNAQLEKEVPIFTKQRIDFTPSERITSLVVSSNQLCMSLGKDTLLRIDLGKANEPNHVELGRKDDAKVHKMFLDHTGSHLLIALSSTEVLYVNRNGQKVRPLARWKGQLVESVGWNKALGTESSTGPILVGTAQGHIFEAELSASEGGLFGPAPDLYFRPLYVLNEEGGPAPVCSLEAERGPDGRSFVIATTRQRLFQFIGRAAEGAEAQGFSGLFAAYTDHPPPFREFPSNLGYSELAFYTPKLRSAPRAFAWMMGDGVLYGALDCGRPDSLLSEERVWEYPEGVGPGASPPLAIVLTQFHFLLLLADRVEAVCTLTGQVVLRDHFLEKFGPLKHMVKDSSTGQLWAYTERAVFRYHVQREARDVWRTYLDMNRFDLAKEYCRERPDCLDTVLAREADFCFRQRRYLESARCYALTQSYFEEIALKFLEARQEEALAEFLQRKLASLKPAERTQATLLTTWLTELYLSRLGALQGDPEALTLYRETKECFRTFLSSPRHKEWLFASRASIHELLASHGDTEHMVYFAVIMQDYERVVAYHCQHEAYEEALAVLARHRDPQLFYKFSPILIRHIPRQLVDAWIEMGSRLDARQLIPALVNYSQGGEVQQVSQAIRYMEFCVNVLGETEQAIHNYLLSLYARGRPDSLLAYLEQAGASPHRVHYDLKYALRLCAEHGHHRACVHVYKVLELYEEAVDLALQVDVDLAKQCADLPEEDEELRKKLWLKIARHVVQEEEDVQTAMACLASCPLLKIEDVLPFFPDFVTIDHFKEAICSSLKAYNHHIQELQREMEEATASAQRIRRDLQELRGRYGTVEPQDKCATCDFPLLNRPFYLFLCGHMFHADCLLQAVRPGLPAYKQARLEELQRKLGAAPPPAKGSARAKEAEGGAATAGPSREQLKADLDELVAAECVYCGELMIRSIDRPFIDPQRYEEEQLSWL
B2: Vps11 (protein, UniProt Q9H270 1-941)
chain: MAAYLQWRRFVFFDKELVKEPLSNDGAAPGATPASGSAASKFLCLPPGITVCDSGRGSLVFGDMEGQIWFLPRSLQLTGFQAYKLRVTHLYQLKQHNILASVGEDEEGINPLVKIWNLEKRDGGNPLCTRIFPAIPGTEPTVVSCLTVHENLNFMAIGFTDGSVTLNKGDITRDRHSKTQILHKGNYPVTGLAFRQAGKTTHLFVVTTENVQSYIVSGKDYPRVELDTHGCGLRCSALSDPSQDLQFIVAGDECVYLYQPDERGPCFAFEGHKLIAHWFRGYLIIVSRDRKVSPKSEFTSRDSQSSDKQILNIYDLCNKFIAYSTVFEDVVDVLAEWGSLYVLTRDGRVHALQEKDTQTKLEMLFKKNLFEMAINLAKSQHLDSDGLAQIFMQYGDHLYSKGNHDGAVQQYIRTIGKLEPSYVIRKFLDAQRIHNLTAYLQTLHRQSLANADHTTLLLNCYTKLKDSSKLEEFIKKKSESEVHFDVETAIKVLRQAGYYSHALYLAENHAHHEWYLKIQLEDIKNYQEALRYIGKLPFEQAESNMKRYGKILMHHIPEQTTQLLKGLCTDYRPSLEGRSDREAPGCRANSEEFIPIFANNPRELKAFLEHMSEVQPDSPQGIYDTLLELRLQNWAHEKDPQVKEKLHAEAISLLKSGRFCDVFDKALVLCQMHDFQDGVLYLYEQGKLFQQIMHYHMQHEQYRQVISVCERHGEQDPSLWEQALSYFARKEEDCKEYVAAVLKHIENKNLMPPLLVVQTLAHNSTATLSVIRDYLVQKLQKQSQQIAQDELRVRRYREETTRIRQEIQELKASPKIFQKTKCSICNSALELPSVHFLCGHSFHQHCFESYSESDADCPTCLPENRKVMDMIRAQEQKRDLHDQFQHQLKCSNDSFSVIADYFGRGVFNKLTLLTDPPTARLTSSLEAGLQRDLLMHSRRGT

Legend:
Vps8-FLAG (human) = target: T1, Vps8-FLAG (human); experiment: co-IP
Vps41-FLAG (human) = target: T2, Vps41-FLAG (human); experiment: co-IP

| Binder | binding (Vps8-FLAG (human)) | binding (Vps41-FLAG (human)) |
| --- | --- | --- |
| B1 | binds | binds |
| B2 | binds | binds |
